Reference: PubChem BioAssay AID540276 (National Center for Advancing Translational Sciences (NCATS), 2011)
In all, about 300,000 compounds went through this assay and about 5,400 (1.8%) were called active. Inconclusive results, whose numbers are uncertain, are shown with a selection of clear calls. The call rests on the fitted dose curve; tested in HEK293 cells. Potencies of inconclusive entries are doubtful fits and often do not repeat.
On the % scale 0 is the no-effect control and ±100 the full control effect; potency means the concentration at half of the fitted maximal effect.

Assay: qHTS for inhibitors of binding or entry into cells for Marburg Virus
Details: Marburg virus pseudotyped entry inhibition, cell reporter; activity change, negative = inhibition: at 37.8 µM (top of the series) unless noted
For Cn1c(C(=O)O)c(CC(=O)N2CCC(Cc3ccccc3)CC2)c2ccccc21, the “activity change, negative = inhibition” value was inactive: -3.61%.
In the case of O=C(O)c1ccc2c(c1)C(=O)N(N1C(=O)c3ccccc3C1=O)C2=O, the “activity change, negative = inhibition” value is reported as inactive: 6.53%.
In the case of Cc1ccc(NCc2nnc(SCc3ccc(C#N)cc3)n2Cc2ccco2)c(C)c1, the Potency is reported as inconclusive: 5.17 µM [inhibitor, single point].
In the case of O=c1c2cnn(-c3ccccc3)c2ncn1CCc1ccccc1, the “activity change, negative = inhibition” value is reported as inactive: -1.77%.
In the case of N#CC1=C2N=C(N)c3c(sc4c3CCCCC4)N2C2=C(C(=O)CCC2)C1c1ccccc1 (stereo not drawn), the Potency is reported as inconclusive: 29.1 µM [inhibitor, partial curve, poor fit].
In the case of COc1ccc(C2CC2/C(=N/OC(=O)c2cccs2)c2ccccc2)cc1 (stereo not drawn), the Potency is reported as inconclusive: 5.62 µM [inhibitor, partial curve, poor fit].
With Cn1c2c(c3ccccc31)CCN(CCCCN1CCN(c3ccccc3)CC1)C2=O the Potency was inconclusive: 11.2 µM [inhibitor, partial curve, poor fit].
In the case of COc1ccc(C(=O)c2cnc3cc4c(cc3c2C)OCO4)cc1, the Potency is reported as inconclusive: 25.1 µM [inhibitor, single point].
In the case of CC(SCc1ccccc1)C(=O)N/N=C/c1ccc2c(c1)OCO2 (stereo not drawn), the “activity change, negative = inhibition” value is reported as inactive: -4.32%.
With COCCn1c(=NC(=O)/C=C/c2ccccc2)sc2cc(NC(C)=O)ccc21 the Potency was inconclusive: 2 µM [inhibitor, full curve, poor fit].
With COc1ccc(CN(C)C(=O)CCN(c2ccccc2)S(=O)(=O)c2ccc(C)cc2)c(OC)c1 the Potency was inconclusive: 35.5 µM [inhibitor, single point].
For COc1cc(OC)c(OC)cc1CNCCc1ccc(F)cc1, the Potency was inconclusive: 10 µM [inhibitor, partial curve, poor fit].
In the case of CCOC(=O)N1CCC(NC(=O)CSc2cc(=O)n(C)c3ccccc23)CC1, the “activity change, negative = inhibition” value is reported as inactive: 4.56% [at 46.1 µM].
With COc1ccc(F)cc1C(=O)C1CCCN(Cc2cccn2-c2ccccn2)C1 (stereo not drawn) the Potency was inconclusive: 8.91 µM [inhibitor, partial curve, poor fit].
With Cc1ccc2cccc(OCC(=O)NCc3ccco3)c2n1 the Potency was inconclusive: 0.0058 µM [inhibitor, full curve, poor fit].
With COc1ccc(Nc2nc(N)c(C(=O)c3ccc(OC)cc3)s2)cc1 the Potency was inconclusive: 5.01 µM [inhibitor, partial curve, poor fit].
For O=C1CCC(c2ccc(-n3ccnc3)cc2)=NN1, the Potency was inconclusive: 16.4 µM [activator, partial curve, poor fit].
For O=C(COC(=O)C1CC2C=CC1C2)Nc1ccccc1 (stereo not drawn), the Potency was inconclusive: 4.47 µM [activator, partial curve, poor fit].
In the case of OCC1(CCOc2ccccc2)CCN(CC2=Cc3cc(Cl)ccc3OC2)CC1, the Potency is reported as inconclusive: 15.8 µM [inhibitor, partial curve, poor fit].
With COc1ccc(-c2cc(OC(=O)c3ccccc3C)c3c(C)oc(C)c3c(=O)c2)cc1 the Potency was inconclusive: 7.08 µM [inhibitor, single point].
In the case of O=C(NNS(=O)(=O)c1ccccc1Cl)C1COc2ccccc2O1 (stereo not drawn), the Potency is reported as inconclusive: 0.398 µM [activator, single point].
With CCOC(=O)c1c(NC(=O)COC(=O)CNC(=O)c2ccc(Cl)cc2Cl)sc(C(=O)N(C)C)c1C the “activity change, negative = inhibition” value was inactive: 23.4%.
For COc1cc2cc(C(c3nnnn3C3CCCCC3)N(C)C3CCCCC3)c(=O)[nH]c2cc1OC (stereo not drawn), the “activity change, negative = inhibition” value was inactive: -21.4%.
With Cc1cccc(Nc2nc(N)nc(CN3CCN(Cc4ccc5c(c4)OCO5)CC3)n2)c1 the “activity change, negative = inhibition” value was inactive: -9.65%.
For Nc1ccccc1C(=O)NCCCN1CCN(c2cccc(Cl)c2)CC1, the Potency was inconclusive: 35.5 µM [inhibitor, single point].
For CCc1ccc2oc(C(=O)NCC(c3ccc(Cl)cc3)N3CCOCC3)c(C)c2c1 (stereo not drawn), the “activity change, negative = inhibition” value was inactive: 2.78% [at 46.1 µM].
For CCc1nnc(NC(=O)CSc2ccc(-c3nc4ccc(C)cc4[nH]3)cn2)s1, the “activity change, negative = inhibition” value was inactive: -23.7%.
For CCOC(=O)c1sc2nc3n(c(=O)c2c1C)CCC(C)CC3 (stereo not drawn), the “activity change, negative = inhibition” value was inactive: 4.15%.
With CCC(=O)Nc1ccc2c(c1)ncn2C the Potency was inconclusive: 35.5 µM [inhibitor, single point].
In the case of Cc1ccc(C)c(OCC(=O)Nc2ccc(N3CCOCC3)cc2N2CCOCC2)c1, the Potency is reported as inconclusive: 0.562 µM [inhibitor, full curve].
For Cc1onc(-c2ccccc2)c1C(=O)NC(=S)NNC(=O)c1ccc(O)cc1, the Potency was inconclusive: 20.6 µM [inhibitor, single point].
For C=CCSC1=N/C(=C/c2ccsc2)C(=O)N1c1ccccc1, the “activity change, negative = inhibition” value was inactive: -16.1%.
For CCOc1ccc2nc(NC(=O)C3CCCN(S(=O)(=O)c4cccc5nonc45)C3)sc2c1 (stereo not drawn), the Potency was inconclusive: 10.3 µM [inhibitor, partial curve, poor fit].
With CCCC(=O)c1ccc(N2CCOCC2)c(F)c1 the Potency was inconclusive: 8.91 µM [activator, partial curve].
With CCN(CC)S(=O)(=O)c1ccc(N2CCOCC2)c(NC(=O)Cc2ccccc2F)c1 the “activity change, negative = inhibition” value was inactive: -8.23%.
In the case of CCOC(=O)Cc1csc(N)n1, the “activity change, negative = inhibition” value is reported as inactive: 0.537%.
In the case of CC(c1nc2ccccc2c(=O)[nH]1)N(C)c1ccc2ccccc2c1 (stereo not drawn), the “activity change, negative = inhibition” value is reported as inactive: 13.9%.
For COc1ccc(S(=O)(=O)N2CCCCC2)cc1N(C)S(=O)(=O)c1ccccc1, the Potency was inconclusive: 35.5 µM [inhibitor, single point].
In the case of O=C(Nc1cnn(Cc2ccc(F)cc2)c1)c1cc(-c2ccco2)on1, the Potency is reported as inconclusive: 35.5 µM [inhibitor, single point].
For CC(C)(C)c1ccc(/C=N/NC(=S)NC2CCCCC2)cc1, the Potency was inconclusive: 13 µM [inhibitor, partial curve, poor fit].
For CCOC(=O)N1CCN(C(=O)c2cc3c(=O)n4cccc(C)c4nc3s2)CC1, the “activity change, negative = inhibition” value was inactive: 5.51% [at 46.1 µM].
For CO/N=C/NC(=O)c1c(OC)ccnc1Oc1ccc(F)cc1, the Potency was inconclusive: 5.17 µM [inhibitor, single point].
With Cn1cccc1CNC(=O)Nc1ccccc1 the “activity change, negative = inhibition” value was inactive: 16.6%.
In the case of CN(C)C(=O)CSc1nnc(-c2cnccn2)n1C, the “activity change, negative = inhibition” value is reported as inactive: -2.5%.
For CCC(=O)Nc1ccccc1-c1nc2ccccc2n(Cc2cccc(Br)c2)c1=O, the “activity change, negative = inhibition” value was inactive: -2.7% [at 46.1 µM].
With CCOc1cc(/C=N/n2nnnc2N)ccc1OCc1c(C)no[n+]1[O-] the “activity change, negative = inhibition” value was inactive: -7.27%.
For C(#Cc1ccc(C#CCN2CCCC2)cc1)CN1CCCC1, the Potency was inconclusive: 7.08 µM [inhibitor, partial curve, poor fit].
With COc1cc(C#CC#CCN2CCCCC2)ccc1O the Potency was inconclusive: 16.4 µM [inhibitor, partial curve, poor fit].
For Cc1cc(Nc2cccc([N+](=O)[O-])c2)c2cccc(C)c2n1, the Potency was inconclusive: 20 µM [inhibitor, partial curve, poor fit].
With CCN(c1ccccc1)S(=O)(=O)c1ccc(Cl)c(NC(=O)CN(C)Cc2cccc(F)c2)c1 the Potency was inconclusive: 35.5 µM [inhibitor, single point].
For COC(=O)CC1=C(C(=O)OC)C(c2cccs2)C(C#N)=C(N)O1 (stereo not drawn), the “activity change, negative = inhibition” value was inactive: 3.45% [at 46.1 µM].
With COc1ccc(CCNC(=O)C2CC2)cc1 the “activity change, negative = inhibition” value was inactive: 1.08% [at 46.1 µM].
In the case of O=C(Nc1nc(-c2cc(F)ccc2F)cs1)C1=COCCO1, the Potency is reported as inconclusive: 12.6 µM [activator, single point].
For Cc1c([N+](=O)[O-])cc(C(=O)Oc2cccc(C(=S)N3CCOCC3)c2)cc1[N+](=O)[O-], the “activity change, negative = inhibition” value was inactive: 1.34%.
With CC(=O)Nc1ccccc1-c1nc2ccccc2n(C(C)C(=O)Nc2cc(Cl)ccc2C)c1=O (stereo not drawn) the “activity change, negative = inhibition” value was inactive: 4.07% [at 46.1 µM].
In the case of CC(C(=O)OCC(=O)NC1CCCC1)N1C(=O)c2ccccc2C1=O (stereo not drawn), the “activity change, negative = inhibition” value is reported as inactive: 3.75%.
In the case of Cc1cccc(C(=O)NNC(=S)NC(=O)c2ccccc2)c1, the Potency is reported as inconclusive: 14.1 µM [inhibitor, single point].
For O=C(Nc1ccncc1)Nc1ccc(Cl)cc1, the “activity change, negative = inhibition” value was inactive: 3.45% [at 46.1 µM].
In the case of O=C1c2ccccc2C(=O)N1CCCc1c[nH]c2ccc(Cl)cc12, the Potency is reported as inconclusive: 12.6 µM [inhibitor, partial curve, poor fit].
With Cc1ccc(C)c2nc(SCC(=O)N3CCCc4ccccc43)c(C#N)cc12 the “activity change, negative = inhibition” value was inactive: -26.1%.
In the case of O=C(CSc1nnnn1-c1ccccc1)NC(=O)Nc1ccc2c(c1)OCCO2, the Potency is reported as inconclusive: 18.3 µM [activator, single point].
In the case of COc1cccc(NC(=S)N(CCCN2CCCC2)Cc2cccn2Cc2ccc(Cl)cc2)c1, the Potency is reported as inconclusive: 10 µM [inhibitor, partial curve, poor fit].
In the case of COc1ccc(/C=N/NC(=O)CN2CCCc3ccccc32)c(OC)c1, the “activity change, negative = inhibition” value is reported as inactive: -2.96% [at 46.1 µM].
With CN(C)C(CNc1ncnc2sc3c(c12)CCCC3)c1ccco1 (stereo not drawn) the Potency was inconclusive: 5.01 µM [inhibitor, full curve].
With COCCCNC(=O)c1nc2ccccc2c(=O)n1NC(=O)Nc1c(Cl)cccc1Cl the “activity change, negative = inhibition” value was inactive: 10.9%.
With CN(C)C(=O)Oc1ccc(Br)cc1C(=O)Nc1ccc(F)c(Cl)c1 the “activity change, negative = inhibition” value was inactive: -26.6% [at 46.1 µM].
In the case of C/C(Cn1nnc([N+](=O)[O-])n1)=N\NC(=O)c1ccccc1Cl, the Potency is reported as inconclusive: 29.1 µM [inhibitor, single point].
With Cc1ccc(C)c(NC(=O)C2CC(O)CN2C(=O)OCc2ccccc2)c1 (stereo not drawn) the “activity change, negative = inhibition” value was inactive: 0.584%.
With O=C(Nc1ccccc1)c1cccc(S(=O)(=O)Nc2ccccn2)c1 the “activity change, negative = inhibition” value was inactive: 0.358%.
With Cc1cccc(-c2nc3c(c(SCC(=O)N(C)C)n2)CCCC3)c1 the Potency was inconclusive: 8.91 µM [inhibitor, partial curve, poor fit].
With O=C(c1ccncc1)c1ccc(N2CCN(C3CC(=O)N(Cc4ccccc4)C3=O)CC2)cc1 (stereo not drawn) the Potency was inconclusive: 35.5 µM [inhibitor, single point].
With CCNC(=O)N1CCN(CCCC(c2ccc(F)cc2)c2ccc(F)cc2)CC1 the Potency was active: 10 µM.
With Cc1ccc(C)c(N2CCN(C(=O)Cn3cnc4sc(C)c(S(=O)(=O)N5CCN(c6ncccn6)CC5)c4c3=O)CC2)c1 the Potency was inconclusive: 35.5 µM [inhibitor, partial curve, poor fit].
